These are yes or no findings as the source states them, for the method shown. Binding seen in cells or lysates may run through a third protein. Some results given as binding are weak or reduced against the parent protein; the word gives no strength.
Biological target: FLAG-NS1 (IAV PR8 NS1 in p3xFLAG-CMV-14) (influenza A virus A/Puerto Rico/8/1934 (PR8)) (UniProt P03496)
Test: co-IP

Amino acid sequences for entries named in this document (tags omitted).
UniProt P03496: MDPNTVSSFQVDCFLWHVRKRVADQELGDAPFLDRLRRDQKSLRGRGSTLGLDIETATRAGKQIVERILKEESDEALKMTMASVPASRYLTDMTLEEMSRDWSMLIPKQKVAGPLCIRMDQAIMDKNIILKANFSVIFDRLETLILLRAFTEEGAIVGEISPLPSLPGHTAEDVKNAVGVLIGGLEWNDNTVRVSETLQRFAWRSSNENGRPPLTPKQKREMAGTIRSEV
UniProt Q7Z434: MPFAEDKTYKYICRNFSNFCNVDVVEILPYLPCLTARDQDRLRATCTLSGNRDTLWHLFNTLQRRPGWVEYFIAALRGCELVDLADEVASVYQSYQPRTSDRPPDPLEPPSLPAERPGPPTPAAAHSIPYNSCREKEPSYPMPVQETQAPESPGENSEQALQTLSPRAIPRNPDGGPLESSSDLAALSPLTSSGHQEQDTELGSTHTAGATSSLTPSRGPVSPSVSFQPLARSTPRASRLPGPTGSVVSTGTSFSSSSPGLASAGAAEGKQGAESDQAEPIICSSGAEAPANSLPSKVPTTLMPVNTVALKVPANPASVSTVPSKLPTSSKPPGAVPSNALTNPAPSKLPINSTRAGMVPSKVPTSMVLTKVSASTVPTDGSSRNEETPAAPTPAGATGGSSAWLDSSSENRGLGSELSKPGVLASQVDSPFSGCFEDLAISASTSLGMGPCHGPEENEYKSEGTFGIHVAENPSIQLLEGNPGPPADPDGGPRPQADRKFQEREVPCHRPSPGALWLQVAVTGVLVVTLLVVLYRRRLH

Substance | binding
MAVS (MAVS plasmid in chicken DF1 cells) (from UniProt Q7Z434 1-540) | binds
HA-tagged wild-type MAVS (from UniProt Q7Z434 1-540) | binds

— article PMC8537625
